Measurements as given in paper PMC10696041.
No constants are given. Whether binding was seen depends on the method and setting. Some entries that bind do so weakly or less than the wild type. Sequences can lack the tags named with a protein.

Molecular target: T1, bone morphogenetic protein-1 (human) (UniProt P13497)
T1 sequence: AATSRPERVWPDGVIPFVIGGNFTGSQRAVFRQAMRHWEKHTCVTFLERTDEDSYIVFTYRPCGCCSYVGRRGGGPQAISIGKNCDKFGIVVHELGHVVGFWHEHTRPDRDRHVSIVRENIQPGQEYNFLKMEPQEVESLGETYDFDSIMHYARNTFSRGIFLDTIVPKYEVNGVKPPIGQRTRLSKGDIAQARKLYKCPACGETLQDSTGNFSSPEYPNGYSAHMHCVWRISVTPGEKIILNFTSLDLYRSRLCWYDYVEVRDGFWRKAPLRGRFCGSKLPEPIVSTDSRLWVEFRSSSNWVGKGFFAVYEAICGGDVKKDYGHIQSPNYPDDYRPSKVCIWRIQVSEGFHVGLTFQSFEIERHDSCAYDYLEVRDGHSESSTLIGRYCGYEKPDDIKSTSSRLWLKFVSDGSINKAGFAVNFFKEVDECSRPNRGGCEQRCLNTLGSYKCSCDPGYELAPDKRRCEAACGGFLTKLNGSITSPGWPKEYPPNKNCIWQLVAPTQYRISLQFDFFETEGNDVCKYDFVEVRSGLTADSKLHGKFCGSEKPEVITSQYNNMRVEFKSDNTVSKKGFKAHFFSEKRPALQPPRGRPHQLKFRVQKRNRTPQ
Experiment: SPR; BMP-1 immobilised by amine coupling on CM5 (974, 1302 or 1492 RU); 10 mM HEPES pH 7.4, 0.15 M NaCl, 5 mM CaCl2, 0.05% P20, 25 °C; PCPE-2 1.56-100 nM with steady-state fit (heterogeneous ligand model for kinetics), 50 nM for comparisons; both purified

binding: binds weakly
B1: procollagen C-proteinase enhancer 1, native form with no His tag (protein, UniProt Q15113 26-449)
chain: QTPNYTRPVFLCGGDVKGESGYVASEGFPNLYPPNKECIWTITVPEGQTVSLSFRVFDLELHPACRYDALEVFAGSGTSGQRLGRFCGTFRPAPLVAPGNQVTLRMTTDEGTGGRGFLLWYSGRATSGTEHQFCGGRLEKAQGTLTTPNWPESDYPPGISCSWHIIAPPDQVIALTFEKFDLEPDTYCRYDSVSVFNGAVSDDSRRLGKFCGDAVPGSISSEGNELLVQFVSDLSVTADGFSASYKTLPRGTAKEGQGPGPKRGTEPKVKLPPKSQPPEKTEESPSAPDAPTCPKQCRRTGTLQSNFCASSLVVTATVKSMVREPGEGLAVTVSLIGAYKTGGLDLPSPPTGASLKFYVPCKQCPPMKKGVSYLLMGQVEENRGPVLPPESFVVLHRPNQDQILTNLSKRKCPSQPVRAAASQD
